Reference: US20080176889A1, “9-anilinoacridine alkylating agents” (priority 2004, published 2008)
Some results were stated once for a whole list of compounds, not compound by compound.

Tested on: human lymphoblastic leukemic cells (CCRF-CEM)
Experiment: XTT-tetrazolium cytotoxicity assay, CCRF-CEM
Format: cell-based
Description: The effects of the compounds on cell growth were determined in all human tumor cells (i.e. T-cell acute lymphocytic leukemia CCRF-CEM), in a 72 h incubation, by XTT-tetrazolium assay, as described by Scudiero et al., Cancer Res. 1988, 48, 4827-4833. After the addition of phenazine methosulfate-XTT solution at 37° C. for 6 h, absorbance at 450 and 630 nm was detected on a microplate reader (EL 340; Bio-Tek Instruments Inc., Winooski, Vt.). Six to seven concentrations of each compound were used. The IC50 and dose-effect relationships of the compounds for antitumor activity were calculated by a median-effect plot (see, e.g., Chou et al. Adv. Enzyme Regul. 1984, 22, 27-55) using a computer program on an IBM-PC workstation (see, e.g., Chou et al. Dose-Effect Analysis with Microcomputers: Quantitation of ED50, LD50, Synergism, Antagonism, Low-Dose Risk, Receptor-Ligands Binding and Enzyme Kinetics; Biosoft: Cambridge, U.K., 1987).

Question: For OCc1cc(Nc2c3ccccc3nc3ccccc23)cc(OCCN(CCCl)CCCl)c1 [Compound 37, (3-(Acridin-9-ylamino)-5-{2-[bis(2-chloroethyl)amino]ethoxy}phenyl)methanol], which “IC50 compared with reference compound AHMA” value is on record?
Answer: The value was “less than the IC50 value for the reference compound”.

Question: How did the “IC50 compared with reference compound AHMA” value turn out when ClCCN(CCCl)CCOc1cccc(Nc2c3ccccc3nc3ccccc23)c1 [Compound 38, Acridin-9-yl-(3-{2-[bis(2-chloroethyl)amino]ethoxy}phenyl)amine] was run?
Answer: Its value is “less than the IC50 value for the reference compound”.

Question: With ClCCN(CCCl)CCCCOc1cccc(Nc2c3ccccc3nc3ccccc23)c1 [Compound 39, Acridin-9-yl-(3-{4-[bis(2-chloroethyl)amino]butoxy}phenyl)amine] as the compound, how does the “IC50 compared with reference compound AHMA” value read?
Answer: Its value is “less than the IC50 value for the reference compound”.

Question: Which “IC50 compared with reference compound AHMA” value does the source give for ClCCN(CCCl)CCOc1ccc(Nc2c3ccccc3nc3ccccc23)cc1 [Compound 40, Acridin-9-yl-(4-{2-[bis(2-chloroethyl)amino]ethoxy}phenyl)amine] here?
Answer: Its value is “less than the IC50 value for the reference compound”.

Question: ClCCN(CCCl)CCCCOc1ccc(Nc2c3ccccc3nc3ccccc23)cc1 [Compound 41, Acridin-9-yl-(4-{4-[bis(2-chloroethyl)amino]buoxy}phenyl)amine] was tested. Which “IC50 compared with reference compound AHMA” value did it give?
Answer: Its value is “less than the IC50 value for the reference compound”.

Question: How did the “IC50 compared with reference compound AHMA” value turn out when Cc1cccc2c(Nc3cccc(OCCN(CCCl)CCCl)c3)c3cccc(C(=O)NCCN(C)C)c3nc12 [Compound 42, 9-(3-{2-[Bis(2-chloroethyl)amino]ethoxy}phenylamino)-5-methylacridin-4-carboxylic acid (2-dimethylaminoethyl)amide] was run?
Answer: Its value is “less than the IC50 value for the reference compound”.

Question: For Cc1cccc2c(Nc3cccc(OCCCCN(CCCl)CCCl)c3)c3cccc(C(=O)NCCN(C)C)c3nc12 [Compound 43, 9-(3-{4-[Bis(2-chloroethyl)amino]butoxy}phenylamino)-5-methylacridin-4-carboxylic acid (2-dimethylaminoethyl)amide], which “IC50 compared with reference compound AHMA” value is on record?
Answer: Its value is “less than the IC50 value for the reference compound”.

Question: Which “IC50 compared with reference compound AHMA” value does the source give for Cc1cccc2c(Nc3ccc(OCCCCN(CCCl)CCCl)cc3)c3cccc(C(=O)NCCN(C)C)c3nc12 [Compound 45, 9-(4-{4-[Bis(2-chloroethyl)amino]butoxy}phenylamino)-5-methylacridin-4-carboxylic acid (2-dimethylaminoethyl)amide] here?
Answer: Its value is “less than the IC50 value for the reference compound”.

Question: How did the “IC50 compared with reference compound AHMA” value turn out when ClCCN(CCCl)Cc1cccc(Nc2c3ccccc3nc3ccccc23)c1 [Compound 46, Acridin-9-yl-(3-{[bis-(2-chloroethyl)amino]methyl}phenyl)amine] was run?
Answer: Its value is “less than the IC50 value for the reference compound”.

Question: For ClCCN(CCCl)Cc1ccc(Nc2c3ccccc3nc3ccccc23)cc1 [Compound 47, Acridin-9-yl-(4-{[bis(2-chloroethyl)amino]methyl}phenyl)amine], which “IC50 compared with reference compound AHMA” value is on record?
Answer: The value was “less than the IC50 value for the reference compound”.

Question: For Cc1cccc2c(Nc3cccc(CN(CCCl)CCCl)c3)c3cccc(C(=O)NCCN(C)C)c3nc12 [Compound 48, 9-(3-{[Bis(2-chloroethyl)amino]methyl}phenylamino)-5-methylacridine-4-carboxylic acid (2-dimethylaminoethyl)amide], which “IC50 compared with reference compound AHMA” value is on record?
Answer: Its value is “less than the IC50 value for the reference compound”.

Question: Cc1cccc2c(Nc3ccc(CN(CCCl)CCCl)cc3)c3cccc(C(=O)NCCN(C)C)c3nc12 [Compound 49, 9-(4-{[Bis(2-chloroethyl)amino]methyl}phenylamino)-5-methylacridin-4-carboxylic acid (2-dimethylaminoethyl)amide] was tested. Which “IC50 compared with reference compound AHMA” value did it give?
Answer: Its value is “less than the IC50 value for the reference compound”.

Question: Which “IC50 compared with reference compound AHMA” value does the source give for Nc1cc(CO)cc(Nc2c3ccccc3nc3c(OCCN(CCCl)CCCl)cccc23)c1 [Compound 50, [3-Amino-5-(4-{2-[bis(2-chloroethyl)amino]ethoxy}acridin-9-ylamino)phenyl]methanol] here?
Answer: The value was “less than the IC50 value for the reference compound”.

Question: With CCOC(=O)Nc1cc(CO)cc(Nc2c3ccccc3nc3c(OCCN(CCCl)CCCl)cccc23)c1 [Compound 51] as the compound, how does the “IC50 compared with reference compound AHMA” value read?
Answer: The value was “less than the IC50 value for the reference compound”.

Question: Nc1cc(CO)cc(Nc2c3ccccc3nc3c(OCCCCN(CCCl)CCCl)cccc23)c1 [Compound 52, [3-Amino-5-(4-{4-[bis-(2-chloroethyl)amino]butoxy}acridin-9-ylamino)phenyl]-methanol] was tested. Which “IC50 compared with reference compound AHMA” value did it give?
Answer: The value was “less than the IC50 value for the reference compound”.

Question: OCc1cc(O)cc(Nc2c3ccccc3nc3c(OCCN(CCCl)CCCl)cccc23)c1 [Compound 53, 3-(4-{2-[Bis-(2-chloroethyl)amino]ethoxy}acridin-9-ylamino)-5-hydroxymethylphenol] was tested. Which “IC50 compared with reference compound AHMA” value did it give?
Answer: The value was “less than the IC50 value for the reference compound”.

Question: Which “IC50 compared with reference compound AHMA” value does the source give for ClCCN(CCCl)CCOc1cccc(Nc2c3ccccc3nc3c(OCCN(CCCl)CCCl)cccc23)c1 [Compound 54, (4-{2-[Bis-(2-chloroethyl)amino]ethoxy}acridin-9-yl)-(3-{2-[bis(2-chloroethyl)-amino]ethoxy}phenyl)amine] here?
Answer: The value was “less than the IC50 value for the reference compound”.

Question: How did the “IC50 compared with reference compound AHMA” value turn out when ClCCN(CCCl)CCCCOc1cccc(Nc2c3ccccc3nc3c(OCCN(CCCl)CCCl)cccc23)c1 [Compound 55] was run?
Answer: The value was “less than the IC50 value for the reference compound”.

Question: How did the “IC50 compared with reference compound AHMA” value turn out when ClCCN(CCCl)CCOc1ccc(Nc2c3ccccc3nc3c(OCCN(CCCl)CCCl)cccc23)cc1 [Compound 56, (4-[2-[Bis(2-chloroethyl)amino]ethoxy]acridin-9-yl)-(4-{2-[bis(2-chloroethyl)amino]-ethoxy}phenyl)amine] was run?
Answer: Its value is “less than the IC50 value for the reference compound”.
